Test results: patent US20250109201A1
These are yes or no findings as the source states them, for the method shown. Some entries that bind do so weakly or less than the wild type.

Amino acid sequences for entries named in this document (tags omitted). Residues count along the entry.
UniProt Q8NHL6, residues 24-482: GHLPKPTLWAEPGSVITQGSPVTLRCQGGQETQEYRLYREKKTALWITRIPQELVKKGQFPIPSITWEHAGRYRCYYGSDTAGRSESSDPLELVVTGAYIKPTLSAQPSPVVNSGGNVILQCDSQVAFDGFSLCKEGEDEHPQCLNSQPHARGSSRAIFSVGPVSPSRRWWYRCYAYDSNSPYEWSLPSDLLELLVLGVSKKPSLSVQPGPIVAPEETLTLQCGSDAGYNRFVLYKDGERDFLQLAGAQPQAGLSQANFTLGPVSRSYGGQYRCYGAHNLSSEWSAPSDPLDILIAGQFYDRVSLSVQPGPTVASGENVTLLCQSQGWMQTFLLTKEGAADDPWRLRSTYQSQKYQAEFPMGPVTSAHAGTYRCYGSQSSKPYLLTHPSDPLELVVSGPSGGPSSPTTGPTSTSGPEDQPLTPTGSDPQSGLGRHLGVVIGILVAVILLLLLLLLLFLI

Columns and labels:
[1] = target: human ILT2 extracellular and transmembrane domains expressed on CHO cells (human) (UniProt Q8NHL6); experiment: flow cytometry, CHO cells with high and with low human ILT2
[2] = target: human ILT2 extracellular and transmembrane domains expressed on CHO cells (human) (UniProt Q8NHL6); experiment: flow cytometry, CHO cells expressing a relatively high level of human ILT2, FITC mouse anti-human IgG4
[3] = target: human ILT2 extracellular and transmembrane domains expressed on CHO cells (human) (UniProt Q8NHL6); experiment: flow cytometry, CHO cells expressing a relatively low level of human ILT2, FITC mouse anti-human IgG4

Measured: binding

B1: 15G8 (Reference antibody) (antibody, V domains shown)
VH: DVQLQGSGPGLVKPSETLSLTCSVTGYSITSGYYWNWIRQFPGKKLEWMGYISYDGSNNYNPSLKNRITISRDTSKNQFSLKLNSVTAADTATYYCAHGYSYYYAMDAWGQGTSVTVSS
VL: DIQMTQSPSSLSASVGDRVTITCRTSQDISNYLNWYQQKPGKAVKLLISYTSRLHSGVPSRFSGSGSGTDYTLTISSLQPEDFATYYCQQGNTLPTFGQGTKLEIK
binds: all assays above
